Results: publication PMC7866668
These are yes or no findings as the source states them, for the method shown. In cells and extracts the contact can be indirect. Some binding calls cover weakened binding; strength is not graded here.

Chains of the proteins cited; added tags and fusions are not shown.
UniProt P01106: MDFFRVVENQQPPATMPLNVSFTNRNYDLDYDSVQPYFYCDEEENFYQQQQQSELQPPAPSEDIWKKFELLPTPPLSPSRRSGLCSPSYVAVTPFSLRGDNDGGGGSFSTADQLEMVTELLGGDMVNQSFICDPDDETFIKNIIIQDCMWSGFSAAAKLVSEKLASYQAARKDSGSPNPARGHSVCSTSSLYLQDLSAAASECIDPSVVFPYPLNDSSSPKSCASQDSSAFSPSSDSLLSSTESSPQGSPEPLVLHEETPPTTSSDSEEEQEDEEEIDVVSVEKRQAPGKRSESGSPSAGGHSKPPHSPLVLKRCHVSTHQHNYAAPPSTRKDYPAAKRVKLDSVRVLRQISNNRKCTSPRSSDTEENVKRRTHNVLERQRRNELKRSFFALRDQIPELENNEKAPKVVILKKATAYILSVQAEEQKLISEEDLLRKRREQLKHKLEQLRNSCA
UniProt Q9Y5T5: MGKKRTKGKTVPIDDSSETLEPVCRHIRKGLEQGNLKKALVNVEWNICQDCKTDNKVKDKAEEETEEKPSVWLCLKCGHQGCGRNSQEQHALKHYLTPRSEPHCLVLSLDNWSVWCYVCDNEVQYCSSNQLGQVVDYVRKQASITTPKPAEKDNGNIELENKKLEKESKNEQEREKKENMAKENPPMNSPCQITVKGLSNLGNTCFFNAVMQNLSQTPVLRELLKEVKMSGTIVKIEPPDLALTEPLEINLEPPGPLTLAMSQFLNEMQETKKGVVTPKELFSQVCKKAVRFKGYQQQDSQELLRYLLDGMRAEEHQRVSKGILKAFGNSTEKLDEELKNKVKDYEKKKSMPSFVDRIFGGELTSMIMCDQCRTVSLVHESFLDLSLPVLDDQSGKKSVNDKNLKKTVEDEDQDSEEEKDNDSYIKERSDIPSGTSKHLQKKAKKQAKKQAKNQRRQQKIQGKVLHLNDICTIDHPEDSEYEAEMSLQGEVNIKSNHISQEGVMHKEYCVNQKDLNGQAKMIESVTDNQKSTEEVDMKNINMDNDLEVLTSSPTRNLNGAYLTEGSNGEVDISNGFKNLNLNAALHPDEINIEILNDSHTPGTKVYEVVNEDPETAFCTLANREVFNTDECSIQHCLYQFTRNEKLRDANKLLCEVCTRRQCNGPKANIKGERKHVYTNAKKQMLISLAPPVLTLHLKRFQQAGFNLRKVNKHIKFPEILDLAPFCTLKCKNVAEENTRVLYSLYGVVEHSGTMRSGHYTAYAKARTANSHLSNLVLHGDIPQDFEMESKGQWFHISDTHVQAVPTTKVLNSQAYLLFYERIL

Experiments:
[1] = molecular target: c-Myc (endogenous, PC3 cells) (human (endogenous in PC3)) (UniProt P01106); assay: co-IP; endogenous c-Myc and USP16 in PC3 cells; NP-40 lysis buffer; protein A/G beads with the indicated antibodies, 4 °C overnight; Western blot
[2] = molecular target: Flag-c-Myc (exogenous, in PC3 cells) (UniProt P01106); assay: co-IP; PC3 cells with exogenous Flag-c-Myc or Flag-USP16; immunoprecipitation with an anti-Flag antibody; endogenous partner analysed by Western blot
[3] = molecular target: Flag-tagged c-Myc (UniProt P01106); assay: co-IP; HEK293T cells transfected with Flag-tagged and V5-tagged plasmids alone or in combination; NP-40 lysis buffer; immunoprecipitation with an anti-Flag antibody on protein A/G beads, 4 °C overnight; immunoblotting
[4] = molecular target: Flag-tagged USP16 (ubiquitin-specific protease 16) (UniProt Q9Y5T5); assay: as above
[5] = molecular target: Flag-USP16 (exogenous, in PC3 cells) (UniProt Q9Y5T5); assay: co-IP; PC3 cells with exogenous Flag-c-Myc or Flag-USP16; immunoprecipitation with an anti-Flag antibody; endogenous partner analysed by Western blot

Question: For “USP16 (endogenous, PC3 cells) (from UniProt Q9Y5T5 1-823) (enzyme)”, which binding [1] is on record?
Answer: binds

Question: And the binding [2]?
Answer: binds

Question: Which binding [3] does the source give for “V5-tagged USP16 (from UniProt Q9Y5T5 1-823) (enzyme)” here?
Answer: binds

Question: How did the binding [4] turn out when “V5-tagged c-Myc (from UniProt P01106 1-454)” was run?
Answer: binds

Question: Which binding [5] does the source give for “c-Myc (endogenous, PC3 cells) (from UniProt P01106 1-454)” here?
Answer: binds
